The other results are listed elsewhere or left out. Many values rest on one well or one pass, so single values are uncertain.

The test has as its system Geomyces destructans. Briefly: growth inhibition relative to DMSO control; higher = stronger growth inhibition. The conditions noted are these: 10 µM; 15 °C; incubation time 10 days.
With `Oc1nc2cc(Cl)c(Cl)cc2nc1O`, the growth inhibition is -33.9%.

Regarding `CC(=O)O[C@H]1CC[C@]2(C)C3=CC(=O)[C@@]4(C)C(C[C@@H]5OC6(OCC(C)CC6Br)[C@@H](C)[C@@H]54)C3CC[C@H]2C1` (stereo partly drawn) [3beta-ACETOXY-23-BROMO-ISOALLOSPIROST-9 (11)-ENE-12-ONE], the growth inhibition was -1.75%.

With `CCCC(=O)Nc1ncnc2c1ncn2[C@@H]1O[C@@H]2COP(=O)(O)O[C@H]2[C@H]1OC(=O)CCC`, the growth inhibition is -1.11%.

On to `CN(C)CCC[C@@]1(c2ccc(F)cc2)OCc2cc(C#N)ccc21`, for which the growth inhibition was -9.74%.

In the case of `COc1c(C2COc3cc4c(cc3C2=O)CC(O)C(C)(C)O4)ccc2c1CCC(C)(C)O2` (stereo not given), the growth inhibition worked out at 3.86%.

For the molecule `NC(=O)N/N=C/c1ccc([N+](=O)[O-])o1`, the growth inhibition is -17.8%.

On to `N=C(N)NCCC[C@@H](NC(=O)[C@@H](N)Cc1ccc(O)cc1)C(=O)O`, for which the growth inhibition was -6.38%.

For the molecule `O=C(NCO)c1cccnc1`, the growth inhibition was -0.163%.

Regarding `CO[C@@H]1[C@@H](OC(N)=O)[C@@H](O)[C@H](Oc2ccc3c(O)c(NC(=O)c4ccc(O)c(CC=C(C)C)c4)c(=O)oc3c2C)OC1(C)C`, the growth inhibition is -8.72%.

On to `C=CCCCCCCCCCCCC(O)CC(O)CO` (stereo not given), for which the growth inhibition is -11.3%.

In the case of `C/C1=C\CCC(=O)C2CC(C)(C)C2CC1` (stereo not given), the growth inhibition is -6.87%.

As for `CCN1CCN(C(=O)N[C@@H](C(=O)N[C@@H]2C(=O)N3[C@@H]2SC(C)(C)[C@@H]3C(=O)O)c2ccccc2)C(=O)C1=O`, the growth inhibition is -1.55%.

Regarding `CC(=O)Oc1cccc(O)c1`, the growth inhibition is -7.83%.

For `COc1cc(/C=C/C(=O)O)cc(OC)c1OC`, the growth inhibition is -15.6%.

With `OC[C@H]1O[C@@H](Oc2ccc(O)cc2)[C@H](O)[C@@H](O)[C@@H]1O`, the growth inhibition was -8.34%.

In the case of `Nc1ccc(S(=O)(=O)c2ccc(N)cc2)cc1`, the growth inhibition was -4.19%.

As to `OCCN1CCN(CCCN2c3ccccc3Sc3ccc(Cl)cc32)CC1`, the growth inhibition was -8.69%.

On to `CCC[C@H](N[C@@H](C)C(=O)N1[C@H](C(=O)O)C[C@@H]2CCCC[C@@H]21)C(=O)OCC`, for which the growth inhibition is -12.2%.

In the case of `Cn1nnnc1SCC1=C(C(=O)O)N2C(=O)[C@@H](NC(=O)[C@H](O)c3ccccc3)[C@H]2SC1`, the growth inhibition was -7.91%.

Turning to `Nc1ccc(C(=O)NCC(=O)O)cc1`, the growth inhibition was -3%.

Regarding `COc1ccc(NS(=O)(=O)c2ccc(N)cc2)nn1`, the growth inhibition is -4.14%.

`CC1(C)OC(=O)NC1=O`: the growth inhibition is -7.18%.

Turning to `CC(=O)Oc1cccc2c1C(=O)c1c(OC(C)=O)cc(C(=O)O)cc1C2=O`, the growth inhibition is -5.2%.

For the molecule `NC(C(=O)O)C(O)C(=O)O` (stereo not drawn) [d,l-threo-3-HYDROXYASPARTIC ACID], the growth inhibition was -4.87%.

For the molecule `COC(=O)C1=CO[C@@H](O[C@@H]2O[C@H](CO)[C@@H](O)[C@H](O)[C@H]2O)[C@@H]2[C@@H](C)[C@@H](O)C[C@H]12`, the growth inhibition is 12.8%.

For `N[C@H]1C(O)O[C@H](CO)[C@@H](O)[C@@H]1O` (stereo not given in full), the growth inhibition worked out at 31.1%.

In the case of `CC(=O)OCC(=O)[C@@]1(O)CCC2C3CC[C@@H]4C[C@H](OC(C)=O)CC[C@]4(C)C3C(=O)C[C@@]21C` (stereo not given in full), the growth inhibition is -1.72%.

In the case of `C[C@@H]1O[C@@H](O[C@H]2[C@H](Oc3cc(O)c4c(=O)cc(-c5ccc(O)cc5)oc4c3)O[C@H](CO)[C@@H](O)[C@@H]2O)[C@H](O)[C@H](O)[C@H]1O`, the growth inhibition amounted to 9.18%.

Consider `CCc1cn([C@H]2C[C@H](O)[C@@H](CO)O2)c(=O)[nH]c1=O`, for which the growth inhibition is -2.21%.

Take `CC(=O)[C@H]1CC[C@H]2[C@@H]3CC(=O)C4=CC(=O)CC[C@]4(C)[C@H]3CC[C@]12C`: the growth inhibition was -25.1%.

For `CC(NCCC(c1ccccc1)c1ccccc1)c1ccccc1` (stereo not given), the growth inhibition was found to be 0.8%.

With `NCCCCC(N)C(=O)NC(Cc1c[nH]c2ccccc12)C(=O)NC(CCCCN)C(=O)O` (stereo not given), the growth inhibition is -3.8%.

Consider `Cc1c(N(C)CS(=O)(=O)O)c(=O)n(-c2ccccc2)n1C`, for which the growth inhibition was -13.2%.

Turning to `NNc1nncc2ccccc12`, the growth inhibition came out at 3.29%.

For the molecule `CC(=O)OCC(CCn1cnc2cnc(N)nc21)COC(C)=O`, the growth inhibition is -33.9%.

For the molecule `NCC(O)CC(=O)O` (stereo not given), the growth inhibition is -2.21%.

As for `C[C@H](CCC(=O)O)[C@H]1CC[C@H]2[C@@H]3[C@H](O)C[C@@H]4C[C@H](O)CC[C@]4(C)[C@H]3CC[C@]12C`, the growth inhibition was -8.24%.

Turning to `Cn1c(=O)[nH]c2[nH]cnc2c1=O`, the growth inhibition was -3.64%.

For the molecule `COc1ccc(-c2coc3c(OC)c(OC)ccc3c2=O)cc1`, the growth inhibition was -6.9%.

On to `COc1c2occc2c(OC)c2c(=O)cc(C)oc12`, for which the growth inhibition came out at 5.43%.

Consider `C1CNCCN1`, for which the growth inhibition was -6.78%.

Regarding `O=c1oc2ccccc2c(O)c1Cc1c(O)c2ccccc2oc1=O`, the growth inhibition is -6.87%.

For the molecule `COC(=O)/C=C/C(C)=C\C=C\C(C)=C\C=C\C=C(C)\C=C\C=C(C)\C=C\C(=O)O`, the growth inhibition was -8.61%.

For `CC(=O)O[C@H]1CC[C@@]2(C)[C@@H](CC[C@@H]3[C@@H]2CC(=O)[C@]2(C)[C@@H]4[C@H](C[C@@H]32)O[C@]2(CC[C@@H](C)CO2)[C@H]4C)C1`, the growth inhibition is -8.7%.

On to `O=C1c2ccccc2C(=O)c2c1ccc(O)c2O`, for which the growth inhibition was determined as 9.83%.

Take `CC(=O)Oc1cc(OC(C)=O)c2c(c1)O[C@H](c1ccc(OC(C)=O)c(OC(C)=O)c1)[C@H](OC(C)=O)C2`: the growth inhibition is -7.21%.

Take `CN1CCN(CCCN2c3ccccc3Sc3ccc(Cl)cc32)CC1`: the growth inhibition was -11.2%.

Consider `COc1cc(-c2coc3cc(O[C@@H]4O[C@H](CO)[C@@H](O)[C@H](O)[C@H]4O)c(OC)c(O)c3c2=O)cc(O)c1OC`, for which the growth inhibition was -7.36%.

Turning to `OC[C@H]1O[C@@H](Oc2cc(O)cc(/C=C/c3ccc(O)cc3)c2)[C@H](O)[C@@H](O)[C@@H]1O`, the growth inhibition is -6.59%.

As to `CC(C)C[C@@H](NC(=O)[C@H](C)NC(=O)CNC(=O)[C@@H](NC=O)C(C)C)C(=O)N[C@@H](C)C(=O)N[C@@H](C(=O)N[C@H](C(=O)N[C@H](C(=O)N[C@@H](Cc1c[nH]c2ccccc12)C(=O)N[C@H](CC(C)C)C(=O)N[C@@H](Cc1c[nH]c2ccccc12)C(=O)N[C@H](CC(C)C)C(=O)N[C@@H](Cc1c[nH]c2ccccc12)C(=O)N[C@H](CC(C)C)C(=O)N[C@@H](Cc1c[nH]c2ccccc12)C(=O)NCCO)C(C)C)C(C)C)C(C)C`, the growth inhibition is -5.91%.

`O=c1c(O)c(-c2ccc(O)cc2O)oc2cc(O)cc(O)c12`: the growth inhibition is -1.89%.

For the molecule `O=c1c(O)c(-c2ccccc2)oc2cc(O)ccc12`, the growth inhibition is -10.1%.

`O=C1OCCN1/N=C/c1ccc([N+](=O)[O-])o1`: the growth inhibition amounted to 1.16%.

Consider `NC(=O)c1ccc([N+](=O)[O-])cc1Cl`, for which the growth inhibition was -10.6%.

For `c1ccc([C@H]2CN3CCSC3=N2)cc1`, the growth inhibition was -16.2%.

As to `CCC(=O)O[C@]1(C(=O)CCl)[C@@H](C)C[C@H]2[C@@H]3CCC4=CC(=O)C=C[C@]4(C)[C@@]3(F)[C@@H](O)C[C@@]21C`, the growth inhibition was -1.58%.

Regarding `O=C1C[C@@H](c2ccc(O)cc2)Oc2cc(O)cc(O)c21`, the growth inhibition was found to be 1.95%.

Regarding `CC(C)NCC(O)c1ccc2ccccc2c1` (stereo not given), the growth inhibition was -10.2%.

Take `CC(=O)O[C@]1(C(C)=O)CC[C@H]2[C@@H]3C[C@H](C)C4=CC(=O)CC[C@]4(C)[C@H]3CC[C@@]21C`: the growth inhibition was found to be 5.74%.

Regarding `CN(C)c1nc(N(C)C)nc(N(C)C)n1`, the growth inhibition was -2.21%.

Consider `CC(=O)Oc1ccc2c(c1)CCC1C2CC[C@]2(C)C(=O)CCC12` (stereo not given in full), for which the growth inhibition is -9.26%.

Turning to `O=C(Nc1ccccc1)Nc1ccccc1`, the growth inhibition was -0.0787%.

Take `COc1cc([C@@H]2c3cc4c(cc3[C@@H](O[C@@H]3O[C@@H]5CO[C@@H](C)O[C@H]5[C@H](O)[C@H]3O)[C@H]3COC(=O)[C@H]23)OCO4)cc(OC)c1O`: the growth inhibition is -5.26%.

For the molecule `CCCNCC(O)COc1ccccc1C(=O)CCc1ccccc1` (stereo not given), the growth inhibition is -10.1%.

On to `CS(=O)(=O)CCCCN=C=S`, for which the growth inhibition is -1.27%.

On to `C[C@H]1C[C@@H]2[C@H]([C@@H](O)C[C@@]3(C)[C@H]2CC[C@]3(O)C(=O)CO)[C@@]2(C)C=CC(=O)C=C12`, for which the growth inhibition turned out to be 1.94%.

Take `CC[C@H]1OC(=O)[C@H](C)[C@@H](O[C@H]2C[C@@](C)(OC)[C@@H](O)[C@H](C)O2)[C@H](C)[C@@H](O[C@@H]2O[C@H](C)C[C@H](N(C)C)[C@H]2O)[C@](C)(O)C[C@@H](C)[C@@H]2N[C@@H](COCCOC)O[C@H]([C@H]2C)[C@]1(C)O`: the growth inhibition was -3.25%.

As for `CC(C)/C(O)=C1/C(=O)O[C@@H](c2ccoc2)[C@]2(C)C(O)[C@@H](O)[C@@]34OC5(C)OC67CC(C)(C(O)[C@]6(O)[C@@H](O)[C@]3(O5)C12)[C@H](CC(=O)O)[C@]74C` (stereo not given in full), the growth inhibition is -13.3%.

`CC1(C)CC[C@]2(C(=O)O)CC[C@]3(C)C(=CC[C@@H]4[C@@]5(C)CC[C@H](O)[C@@](C)(CO)[C@@H]5CC[C@]43C)[C@@H]2C1`: the growth inhibition was determined as 0.283%.

In the case of `COc1ccc(-c2c(OC)c3c(OC)c4c(cc3oc2=O)OC(C)(C)C=C4)cc1`, the growth inhibition came to 10.8%.

Turning to `O=c1cc[nH]c(=S)[nH]1`, the growth inhibition is 2.53%.

Take `CC1Cc2ccccc2N1NC(=O)c1ccc(Cl)c(S(N)(=O)=O)c1` (stereo not given): the growth inhibition worked out at 1.61%.

Consider `CCC(=O)c1c(O)cc(O)cc1O`, for which the growth inhibition is -16.5%.

Consider `CO/N=C(\C(=O)N[C@@H]1C(=O)N2C(C(=O)O)=C(COC(N)=O)CS[C@H]12)c1ccco1`, for which the growth inhibition is -30.5%.

For the molecule `Nc1ccc(S(=O)(=O)Nc2ccnn2-c2ccccc2)cc1`, the growth inhibition is -3.02%.

Regarding `CC(=O)O[C@@H]1CC2C(C)(C)C(=O)C3OC3[C@]2(C)C2CC[C@@]3(C)[C@H](c4ccoc4)OC(=O)C4OC43[C@@]21C` (stereo not given in full), the growth inhibition was -2.85%.

For the molecule `CC12CCC(CC1)C(C)(C)O2`, the growth inhibition was 1%.

With `COc1c(O)cccc1O`, the growth inhibition is 2.28%.

With `COC(=O)CC[C@@H](C)[C@H]1CC[C@H]2[C@@H]3[C@H](O)C[C@@H]4C[C@H](O)CC[C@]4(C)[C@H]3C[C@H](O)[C@]12C`, the growth inhibition was -10.6%.

As to `Cc1cc(CC(=O)O)n(C)c1C(=O)c1ccc(Cl)cc1`, the growth inhibition is -25.4%.

Consider `O=C(O)C1=CCCNC1`, for which the growth inhibition was -1.47%.

Regarding `CC(=O)OC1CCC2(C)C(CCC3(C)C2CC=C2C4C(C)C(C)CCC4(C(=O)O)CCC23C)C1(C)C` (stereo not given), the growth inhibition was -15.6%.

On to `CC1(C)C=CC(=O)[C@@]2(C)C1CC(=O)[C@]1(C)C2CC[C@@]2(C)[C@H](c3ccoc3)OC(=O)C3OC321` (stereo not given in full), for which the growth inhibition was -25%.

Consider `CN(C)C(=O)Nc1ccc(Cl)c(Cl)c1`, for which the growth inhibition is -6.83%.

With `CC(C)C[C@@H]1NC(=O)[C@H](CCCN)NC(=O)[C@H](C(C)C)NC(=O)[C@H](Cc2ccc(O)cc2)N[C@@H](CCC(=O)O)C(=O)N[C@@H](CC(N)=O)C(=O)[C@@H](Cc2ccccc2)NC(=O)[C@H](Cc2ccccc2)NC(=O)[C@@H]2CCCN2C(=O)[C@@H](Cc2ccccc2)NC1=O`, the growth inhibition is -19.8%.

(Values after the supplement of paper PMC3047530.)
